Laboratory results as given in patent US20200010756A1, “SURFACTANT FOR ENHANCED OIL RECOVERY” (Total S.A., priority 2017, published 2020).

Experiment: slim tube co-injection with CO2 at different salinities, emulsion generation
Settings: 0.2 wt %, co-injected with CO2

CCCCCCCCCCCCNCCCN(C)C [Compound E, N^1-dodecyl-N^3,N^3-dimethylpropane-1,3-diamine]
generation of a strong emulsion (pH 6, 220 g/L NaCl brine): can be readily generated | generation of a strong emulsion (pH 6, deionized water (salinity=0)): cannot
